# The supplement of paper PMC8866396
# ± gives the standard deviation of the averaged measurements. Some of the results follow. This data set is noisy: repeats of one test often differ as much as different tests do.
# Assays:
# [1] = system: IL-6-GFP PC-9GR; test: IL-6-GFP fluorescence relative to DMSO control (fraction of control); higher = more IL-6-GFP expression; details: compound concentration: 10 uM; treatment time: 48 h
# Protocol: (§1)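 IL-6-GFP-overexpressing PC-9 and PC-9GR EGFR-mutant lung cancer cells (3000 cells/well, 96-well) were treated for 48 h with each compound of the Selleck L2000 library at 10 uM. IL-6-GFP fluorescence was read on a high-content screening system, and viability by CCK-8 absorbance on a parallel plate set. Each value was normalised as compound well / DMSO control well; two independent replicates.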
# [2] = system: IL-6-GFP PC-9; test: as above; details: compound concentration: 10 uM; treatment time: 48 h
# Protocol: as §1
SMILES,IL-6-GFP fluorescence [1],IL-6-GFP fluorescence [2]
O=C(O)CCc1nc(-c2ccccc2)c(-c2ccccc2)o1 [Oxaprozin],0.67 ± 0.31,0.837 ± 0.058
O.S=c1nc[nH]c2nc[nH]c12 [6-Mercaptopurine (6-MP) Monohydrate],0.592 ± 0.24,0.884 ± 0.0093
COc1ccc(-c2ccc3cc(C(=O)O)ccc3c2)cc1C12CC3CC(CC(C3)C1)C2 [Adapalene],0.998 ± 0.1,0.795 ± 0.32
CCN(CC)CCNC(=O)c1c(C)[nH]c(/C=C2\C(=O)Nc3ccc(F)cc32)c1C.O=C(O)CC(O)C(=O)O [Sunitinib Malate],1.57 ± 0.19,1.26 ± 0.19
Cc1cc2ncc(C(=O)NCC(C)(C)NCC(=O)N3CCCC3C#N)cn2n1 (stereo not drawn) [Anagliptin],0.712 ± 0.23,0.933 ± 0.18
O=S(=O)([O-])CCS.[Na+] [Mesna],0.668 ± 0.2,0.854 ± 0.17
O=C(O)c1cc(N=Nc2ccc(S(=O)(=O)Nc3ccccn3)cc2)ccc1O [Sulfasalazine],0.7945 ± 0.0064,0.779 ± 0.27
Cc1nc(NC(=O)N2CCCC2C(N)=O)sc1-c1ccnc(C(C)(C)C(F)(F)F)c1 (stereo not drawn) [Alpelisib (BYL719)],1.28 ± 0.35,1.08 ± 0.48
N#CC1CC2CC2N1C(=O)C(N)C12CC3CC(CC(O)(C3)C1)C2.O (stereo not drawn) [Saxagliptin hydrate],0.572 ± 0.5,0.901 ± 0.017
Cl.c1ccc(CN(CC2=NCCN2)c2ccccc2)cc1 [Antazoline HCl],0.746 ± 0.3,0.879 ± 0.1
CC1(C)OC2CC3C4CCC5=CC(=O)C=CC5(C)C4(F)C(O)CC3(C)C2(C(=O)CO)O1 (stereo not drawn) [Triamcinolone Acetonide],0.769 ± 0.38,0.991 ± 0.09
COc1cc(Nc2c(C#N)cnc3cc(OCCCN4CCN(C)CC4)c(OC)cc23)c(Cl)cc1Cl [Bosutinib (SKI-606)],1.23 ± 0.11,0.987 ± 0.087
CS(=O)(=O)n1cc2c(n1)CN(C1COC(c3cc(F)ccc3F)C(N)C1)C2 (stereo not drawn) [Omarigliptin (MK-3102)],0.933 ± 0.1,0.8912 ± 0.0076
CC#CC(=O)N1CCCC1c1nc(-c2ccc(C(=O)Nc3ccccn3)cc2)c2c(N)nccn12 (stereo not drawn) [Acalabrutinib (ACP-196)],1.61 ± 0.048,1.24 ± 0.26
C=CC(=O)Nc1cccc(Oc2nc(Nc3ccc(N4CCN(C)CC4)cc3)nc3ccsc23)c1,1.04 ± 0.038,1 ± 0.13
CN1CCN(C(c2ccccc2)c2ccccc2)CC1.Cl.Cl [Cyclizine 2HCl],0.671 ± 0.2,0.912 ± 0.011
Cl.N=C1CCCN1Cc1[nH]c(=O)[nH]c(=O)c1Cl.O=c1[nH]c(=O)n(C2CC(O)C(CO)O2)cc1C(F)(F)F.O=c1[nH]c(=O)n(C2CC(O)C(CO)O2)cc1C(F)(F)F (stereo not drawn),–,1.09 ± 0.027
CCN1CCN(Cc2ccc(Nc3ncc(F)c(-c4cc(F)c5nc(C)n(C(C)C)c5c4)n3)nc2)CC1 [Abemaciclib],1.01 ± 0.18,0.874 ± 0.064
CC(Cn1ccc(-c2ccc(C#N)c(Cl)c2)n1)NC(=O)c1cc(C(C)O)[nH]n1 (stereo not drawn) [Darolutamide (ODM-201)],1.04 ± 0.11,1.03 ± 0.031
FC(F)(F)c1ccc(CNc2ccc(Cc3c[nH]c4ncc(Cl)cc34)cn2)cn1 [Pexidartinib (PLX3397)],1.04 ± 0.37,0.904 ± 0.0098
Cn1nnc2c(C(N)=O)ncn2c1=O [Temozolomide],0.951 ± 0.073,0.891 ± 0.15
Nc1ccc(S(=O)(=O)Nc2ccnn2-c2ccccc2)cc1 [Sulfaphenazole],–,0.81 ± 0.16
CC(=O)C1CCC2C3CC(C)C4=CC(=O)CCC4(C)C3C(O)CC12C (stereo not drawn) [Medrysone],0.75 ± 0.23,1.03 ± 0.22
CCOc1cc2ncc(C#N)c(Nc3ccc(OCc4ccccn4)c(Cl)c3)c2cc1NC(=O)/C=C/CN(C)C [Neratinib (HKI-272)],0.846 ± 0.23,0.7012 ± 0.0068
CC(C)(C)c1ccc(C(=O)CCCN2CCC(OC(c3ccccc3)c3ccccc3)CC2)cc1 [Ebastine],0.8049 ± 0.0018,0.968 ± 0.44
COc1ccc2c(c1)c(CC(=O)O)c(C)n2C(=O)c1ccc(Cl)cc1 [Indomethacin],0.939 ± 0.54,1.04 ± 0.36
CC(C)Cc1ccc(C(C)C(=O)O)cc1.NCCCCC(N)C(=O)O (stereo not drawn) [Ibuprofen Lysine],0.723 ± 0.51,0.651 ± 0.3
O=C([O-])Cc1ccccc1Nc1c(Cl)cccc1Cl.[K+] [Diclofenac Potassium],–,0.717 ± 0.19

# A different layout for part of the listing above:
SMILES | IL-6-GFP fluorescence [1] | IL-6-GFP fluorescence [2]
O=C(O)CCc1nc(-c2ccccc2)c(-c2ccccc2)o1 [Oxaprozin] | 0.67 ± 0.31 | 0.837 ± 0.058
O.S=c1nc[nH]c2nc[nH]c12 [6-Mercaptopurine (6-MP) Monohydrate] | 0.592 ± 0.24 | 0.884 ± 0.0093
CS(=O)(=O)n1cc2c(n1)CN(C1COC(c3cc(F)ccc3F)C(N)C1)C2 (stereo not drawn) [Omarigliptin (MK-3102)] | 0.933 ± 0.1 | 0.8912 ± 0.0076
Cl.N=C1CCCN1Cc1[nH]c(=O)[nH]c(=O)c1Cl.O=c1[nH]c(=O)n(C2CC(O)C(CO)O2)cc1C(F)(F)F.O=c1[nH]c(=O)n(C2CC(O)C(CO)O2)cc1C(F)(F)F (stereo not drawn) | – | 1.09 ± 0.027
CC(=O)C1CCC2C3CC(C)C4=CC(=O)CCC4(C)C3C(O)CC12C (stereo not drawn) [Medrysone] | 0.75 ± 0.23 | 1.03 ± 0.22
COc1ccc2c(c1)c(CC(=O)O)c(C)n2C(=O)c1ccc(Cl)cc1 [Indomethacin] | 0.939 ± 0.54 | 1.04 ± 0.36
